Measurements published in patent US20220288052A1, “COMPOUND FOR COMBINATION TREATMENT” (priority 2019, published 2022).
For at least one compound, name, drawing or mass did not settle the structure.

Test system: NMRI mice
Assay: Locomotor activity (mLA)
Type: in vivo, mouse
Conditions: p.o.
Experimental: FIG. 8: The effects of compound (I) on locomotor activity. Compound (I) p.o. in NMRI mice. TSE Motility.
Compound (I) was tested in a classical test often used to measure the ability of a compound to block the reuptake of 5-HT in vivo: nialamide-induced 5-HT syndrome (m5-HT). In addition, compound (I) was tested in a locomotor activity paradigm (mLA) as a measure of its ability to block the reuptake of DA and therefore induce motility. It is generally accepted that >60% DA transporter blockade is needed to induce increased motility in this test.

## CN(C)CCCC1(c2ccc(F)cc2)OCc2cc(C#N)ccc21 (stereo not shown) [Citalopram]
  Effect on locomotor activity: without effect
